5 molecules from PMC5359578 can be followed below.

Protein sequences, listed by entry. Tags and fused reporters are not part of them.
UniProt Q13950: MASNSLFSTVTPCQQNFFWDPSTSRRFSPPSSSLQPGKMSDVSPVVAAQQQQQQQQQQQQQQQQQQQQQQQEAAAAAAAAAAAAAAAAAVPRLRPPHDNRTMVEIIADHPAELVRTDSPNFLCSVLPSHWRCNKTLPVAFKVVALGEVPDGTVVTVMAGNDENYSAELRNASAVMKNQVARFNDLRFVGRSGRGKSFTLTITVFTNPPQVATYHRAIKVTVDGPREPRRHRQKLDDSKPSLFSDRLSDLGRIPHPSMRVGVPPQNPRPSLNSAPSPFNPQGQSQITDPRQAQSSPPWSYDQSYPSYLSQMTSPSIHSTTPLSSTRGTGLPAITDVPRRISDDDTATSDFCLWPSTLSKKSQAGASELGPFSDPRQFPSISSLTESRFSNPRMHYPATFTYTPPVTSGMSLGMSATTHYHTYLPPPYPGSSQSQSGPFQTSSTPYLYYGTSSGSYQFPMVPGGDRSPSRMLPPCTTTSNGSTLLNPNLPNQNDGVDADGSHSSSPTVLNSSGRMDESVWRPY
UniProt P16220: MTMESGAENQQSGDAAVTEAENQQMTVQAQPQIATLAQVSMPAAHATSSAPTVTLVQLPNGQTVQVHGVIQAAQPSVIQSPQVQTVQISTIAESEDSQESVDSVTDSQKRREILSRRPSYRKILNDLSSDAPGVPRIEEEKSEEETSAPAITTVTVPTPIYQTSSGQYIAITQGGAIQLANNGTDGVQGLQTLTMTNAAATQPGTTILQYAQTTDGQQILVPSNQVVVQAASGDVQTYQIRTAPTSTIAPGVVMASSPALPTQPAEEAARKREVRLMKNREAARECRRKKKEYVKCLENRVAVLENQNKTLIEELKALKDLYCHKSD

These are yes or no findings as the source states them, for the method shown. Binding seen in cells or lysates may run through a third protein. Some binding calls cover weakened binding; strength is not graded here.

Test [1] deals with YAP-FLAG (UniProt P46937). As to the kind of experiment: co-IP; Bel-7402 cells co-transfected with YAP-FLAG and a tagged transcription factor, and with increasing concentrations of AMOT-HA; YAP-FLAG immuno-precipitated by anti-FLAG; partners detected by Western blot. (In general: A western blot detects proteins with antibodies after separation by electrophoresis.)
Test [2] concerns the target YAP-FLAG (UniProt P46937). As to the kind of experiment: co-IP; Bel-7402 cells co-transfected with YAP-FLAG and a tagged transcription factor, treated with DMSO or TPA (16-32 uM); YAP-FLAG immuno-precipitated by anti-FLAG; partners detected by Western blot.
Test [3] deals with Yes-associated protein (YAP), endogenous (human (endogenous in Bel-7402 and Bel-7404)) (UniProt P46937). As to the kind of experiment: co-IP; cells with or without overexpression of AMOT; endogenous YAP immuno-precipitated by anti-YAP; partners detected by Western blot.
The target is the same in test [4]. As to the kind of experiment: co-IP; endogenous YAP immuno-precipitated by anti-YAP from Bel-7402 and Bel-7404 cells treated with DMSO or TPA (16-48 uM, 24 h); partners detected by Western blot.

As to Runx2-HA (from UniProt Q13950 1-521), the binding result with YAP-FLAG [1] and in the test with YAP-FLAG [2] was “binds” in each case.
In the case of “Runx2, endogenous (from UniProt Q13950 1-521)”, the binding entry in test [3] and in test [4] was “binds” each time.
Consider “CREB, endogenous (from UniProt P16220 1-327)”, for which the binding entry in test [3] and in test [4] was “binds” each time.
CREB-HA (from UniProt P16220 1-327): the binding entry in the test with YAP-FLAG [1] and with YAP-FLAG [2] was “binds” throughout.

B1: p73, endogenous (protein, UniProt O15350 1-636)
chain: MAQSTATSPDGGTTFEHLWSSLEPDSTYFDLPQSSRGNNEVVGGTDSSMDVFHLEGMTTSVMAQFNLLSSTMDQMSSRAASASPYTPEHAASVPTHSPYAQPSSTFDTMSPAPVIPSNTDYPGPHHFEVTFQQSSTAKSATWTYSPLLKKLYCQIAKTCPIQIKVSTPPPPGTAIRAMPVYKKAEHVTDVVKRCPNHELGRDFNEGQSAPASHLIRVEGNNLSQYVDDPVTGRQSVVVPYEPPQVGTEFTTILYNFMCNSSCVGGMNRRPILIIITLEMRDGQVLGRRSFEGRICACPGRDRKADEDHYREQQALNESSAKNGAASKRAFKQSPPAVPALGAGVKKRRHGDEDTYYLQVRGRENFEILMKLKESLELMELVPQPLVDSYRQQQQLLQRPSHLQPPSYGPVLSPMNKVHGGMNKLPSVNQLVGQPPPHSSAATPNLGPVGPGMLNNHGHAVPANGEMSSSHSAQSMVSGSHCTPPPPYHADPSLVSFLTGLGCPNCIEYFTSQGLQSIYHLQNLTIEDLGALKIPEQYRMTIWRGLQDLKQGHDYSTAQQLLRSSNAATISIGGSGELQRQRVMEAVHFRVRHTITIPNRGGPGGGPDEWADFGFDLPDCKARKQPIKEEFTEAEIH
In the case of B1, the binding result in test [3] and in test [4] was “binds” throughout.
